According to patent publication US20130023541A1, “VOLTAGE-GATED SODIUM CHANNEL BLOCKERS” (Glaxo Group Limited, priority 2010, published 2013):
Some entries share one result that the patent states for a list of compounds.

Chains of the proteins cited; added tags and fusions are not shown.
UniProt Q9NY46, whole entry: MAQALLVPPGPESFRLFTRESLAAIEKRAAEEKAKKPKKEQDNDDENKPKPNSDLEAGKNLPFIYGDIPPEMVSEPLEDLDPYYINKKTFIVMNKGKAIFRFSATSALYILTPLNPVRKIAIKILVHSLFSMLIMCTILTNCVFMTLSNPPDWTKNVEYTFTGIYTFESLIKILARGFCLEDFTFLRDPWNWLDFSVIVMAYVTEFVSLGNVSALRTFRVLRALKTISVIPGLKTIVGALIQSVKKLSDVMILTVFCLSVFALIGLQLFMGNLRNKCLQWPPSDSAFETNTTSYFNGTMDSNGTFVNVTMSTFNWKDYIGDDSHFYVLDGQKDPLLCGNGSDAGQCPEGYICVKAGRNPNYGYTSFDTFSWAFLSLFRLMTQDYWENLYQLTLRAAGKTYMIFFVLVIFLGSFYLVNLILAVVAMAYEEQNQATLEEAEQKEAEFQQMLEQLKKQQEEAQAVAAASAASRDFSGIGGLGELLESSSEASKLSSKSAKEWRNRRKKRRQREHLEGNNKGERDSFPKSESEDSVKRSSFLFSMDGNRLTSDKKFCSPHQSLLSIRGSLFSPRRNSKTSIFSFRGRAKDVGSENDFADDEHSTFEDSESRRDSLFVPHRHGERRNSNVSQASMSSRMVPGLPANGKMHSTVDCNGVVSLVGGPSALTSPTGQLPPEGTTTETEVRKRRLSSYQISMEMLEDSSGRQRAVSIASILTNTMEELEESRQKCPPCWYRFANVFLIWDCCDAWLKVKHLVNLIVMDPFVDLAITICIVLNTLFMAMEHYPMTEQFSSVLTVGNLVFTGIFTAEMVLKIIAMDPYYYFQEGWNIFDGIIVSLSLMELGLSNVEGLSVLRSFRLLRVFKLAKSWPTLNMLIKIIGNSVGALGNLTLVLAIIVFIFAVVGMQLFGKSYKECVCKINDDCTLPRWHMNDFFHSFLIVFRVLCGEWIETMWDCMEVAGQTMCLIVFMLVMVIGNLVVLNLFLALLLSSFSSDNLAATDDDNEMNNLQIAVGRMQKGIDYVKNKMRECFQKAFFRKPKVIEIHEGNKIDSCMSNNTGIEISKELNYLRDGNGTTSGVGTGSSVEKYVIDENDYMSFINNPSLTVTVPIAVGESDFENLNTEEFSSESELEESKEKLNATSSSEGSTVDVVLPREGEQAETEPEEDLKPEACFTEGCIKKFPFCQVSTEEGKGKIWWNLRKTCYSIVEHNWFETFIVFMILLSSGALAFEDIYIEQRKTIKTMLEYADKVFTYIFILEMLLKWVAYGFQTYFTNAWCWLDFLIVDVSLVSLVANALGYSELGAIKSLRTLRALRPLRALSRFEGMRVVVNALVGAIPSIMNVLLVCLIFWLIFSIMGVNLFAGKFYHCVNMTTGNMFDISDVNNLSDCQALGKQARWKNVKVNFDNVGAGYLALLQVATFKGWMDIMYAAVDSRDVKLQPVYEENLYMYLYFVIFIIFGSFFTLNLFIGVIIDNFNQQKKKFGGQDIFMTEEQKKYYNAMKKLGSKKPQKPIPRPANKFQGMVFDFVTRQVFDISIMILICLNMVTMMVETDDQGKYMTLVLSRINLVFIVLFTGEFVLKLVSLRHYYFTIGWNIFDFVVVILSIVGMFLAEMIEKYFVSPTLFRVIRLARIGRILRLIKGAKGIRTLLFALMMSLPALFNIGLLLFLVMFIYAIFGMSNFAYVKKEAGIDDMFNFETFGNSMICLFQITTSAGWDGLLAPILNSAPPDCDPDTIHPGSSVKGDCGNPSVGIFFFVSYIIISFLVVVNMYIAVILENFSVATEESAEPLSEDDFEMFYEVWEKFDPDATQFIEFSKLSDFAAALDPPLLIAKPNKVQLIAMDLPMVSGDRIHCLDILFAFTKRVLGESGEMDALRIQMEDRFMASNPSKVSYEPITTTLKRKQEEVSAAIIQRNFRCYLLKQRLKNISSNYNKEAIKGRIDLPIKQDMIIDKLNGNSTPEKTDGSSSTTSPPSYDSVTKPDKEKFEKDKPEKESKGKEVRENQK
UniProt Q15858, whole entry: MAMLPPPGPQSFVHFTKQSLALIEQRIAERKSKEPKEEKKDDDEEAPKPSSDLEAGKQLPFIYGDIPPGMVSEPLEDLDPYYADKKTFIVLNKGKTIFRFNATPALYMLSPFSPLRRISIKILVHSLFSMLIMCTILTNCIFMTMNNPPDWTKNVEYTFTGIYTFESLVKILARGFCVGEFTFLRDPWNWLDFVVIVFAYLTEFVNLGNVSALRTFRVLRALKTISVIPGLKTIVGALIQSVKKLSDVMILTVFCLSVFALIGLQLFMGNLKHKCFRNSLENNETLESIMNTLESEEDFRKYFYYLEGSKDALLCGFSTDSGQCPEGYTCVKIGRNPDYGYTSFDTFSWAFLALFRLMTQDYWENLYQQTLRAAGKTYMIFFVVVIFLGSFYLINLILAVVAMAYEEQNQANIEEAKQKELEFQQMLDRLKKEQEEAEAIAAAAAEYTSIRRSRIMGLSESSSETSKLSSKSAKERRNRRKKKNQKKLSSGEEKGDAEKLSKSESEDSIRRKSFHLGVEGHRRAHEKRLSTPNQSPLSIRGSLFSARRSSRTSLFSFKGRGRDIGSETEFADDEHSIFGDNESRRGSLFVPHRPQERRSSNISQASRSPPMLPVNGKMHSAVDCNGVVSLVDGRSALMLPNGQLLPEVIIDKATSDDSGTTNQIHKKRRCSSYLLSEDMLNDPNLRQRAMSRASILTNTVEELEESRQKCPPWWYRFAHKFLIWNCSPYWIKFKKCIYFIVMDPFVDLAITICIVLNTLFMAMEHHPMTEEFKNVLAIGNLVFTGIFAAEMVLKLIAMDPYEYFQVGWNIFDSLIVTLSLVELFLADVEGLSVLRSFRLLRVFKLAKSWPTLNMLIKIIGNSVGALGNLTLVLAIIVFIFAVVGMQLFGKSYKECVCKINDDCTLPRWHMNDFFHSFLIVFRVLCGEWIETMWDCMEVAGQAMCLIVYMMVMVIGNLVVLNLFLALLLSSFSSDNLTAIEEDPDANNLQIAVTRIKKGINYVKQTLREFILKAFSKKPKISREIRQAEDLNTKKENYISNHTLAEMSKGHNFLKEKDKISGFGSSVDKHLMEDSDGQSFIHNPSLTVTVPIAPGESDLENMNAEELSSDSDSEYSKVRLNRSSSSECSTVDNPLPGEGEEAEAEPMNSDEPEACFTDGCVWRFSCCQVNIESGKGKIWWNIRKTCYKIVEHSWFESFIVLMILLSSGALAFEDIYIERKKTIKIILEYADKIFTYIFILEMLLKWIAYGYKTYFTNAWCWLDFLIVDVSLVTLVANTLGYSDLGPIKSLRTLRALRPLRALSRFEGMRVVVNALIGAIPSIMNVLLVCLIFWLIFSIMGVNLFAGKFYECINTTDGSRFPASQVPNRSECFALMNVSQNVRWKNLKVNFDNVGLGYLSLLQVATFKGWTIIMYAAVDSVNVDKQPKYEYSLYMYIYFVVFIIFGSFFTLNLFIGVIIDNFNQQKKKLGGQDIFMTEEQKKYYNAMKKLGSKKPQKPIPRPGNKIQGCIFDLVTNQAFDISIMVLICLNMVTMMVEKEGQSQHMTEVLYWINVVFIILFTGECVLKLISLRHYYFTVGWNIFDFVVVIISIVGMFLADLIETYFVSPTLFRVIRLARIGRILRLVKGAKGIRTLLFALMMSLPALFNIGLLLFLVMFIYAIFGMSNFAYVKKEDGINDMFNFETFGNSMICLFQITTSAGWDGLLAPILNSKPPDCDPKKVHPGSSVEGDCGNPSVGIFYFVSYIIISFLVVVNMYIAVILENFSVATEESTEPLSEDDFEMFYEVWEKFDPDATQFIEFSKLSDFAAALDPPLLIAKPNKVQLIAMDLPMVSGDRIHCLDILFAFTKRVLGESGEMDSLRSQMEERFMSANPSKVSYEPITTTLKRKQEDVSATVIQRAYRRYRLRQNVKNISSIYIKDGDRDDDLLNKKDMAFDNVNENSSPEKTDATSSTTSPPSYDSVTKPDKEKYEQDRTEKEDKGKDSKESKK

Assays:
hNaV1.3 channels = molecular target: T1, hNaV1.3 channels (Homo sapiens, UniProt Q9NY46); assay: Use-dependent block of hNaV1.3 currents, IonWorks Quattro planar array electrophysiology; format: cell-based; details: concentration producing 15% use-dependent inhibition, 10th versus 1st depolarizing pulse, 10 Hz, CHO cells
T1 construct: expressed in transfected cells

NaV 1.7 = NaV 1.7 (Homo sapiens, UniProt Q15858); assay: Use-dependent block of NaV1.7 currents, IonWorks Quattro planar array electrophysiology; format: cell-based; details: concentration producing 15% use-dependent inhibition, 10th versus 1st depolarizing pulse, 10 Hz

Row | Structure (SMILES) | use-dependent pUD15 against NaV1.3 (hNaV1.3 channels) | use-dependent pUD15 against NaV1.7 (NaV 1.7)
1 | CCN(Cc1ccccc1OC(C)C)[C@@H]1CCN(c2nccc(-c3ccccc3)c2C(=O)OC(C)C)C1 [Example 164, 1-methylethyl 2-{(3R)-3-[ethyl({2-[(1-methylethyl)oxy]phenyl}methyl)amino]-1-pyrrolidinyl}-4-phenyl-3-pyridinecarboxylate] | 4-4.99 | inactive
2 | CC(=O)Oc1ccc(CN2CCN(c3nccc(C)c3C(=O)OC(C)C)CC2)cc1 [Example 247] | 5-5.99 | 5-5.99
3 | CCN(Cc1ccc(C)s1)[C@@H]1CCN(c2nccc(-c3ccccc3)c2C(=O)OC(C)C)C1 [Example 153, 1-methylethyl 2-((3R)-3-{ethyl[(5-methyl-2-thienyl)methyl]amino}-1-pyrrolidinyl)-4-phenyl-3-pyridinecarboxylate] | inactive | inactive
4 | CCN(Cc1cccc(Oc2ccccc2)c1)[C@@H]1CCN(c2ncccc2C(=O)OC(C)C)C1 [Example 50, 1-methylethyl 2-[(3R)-3-(ethyl{[3-(phenyloxy)phenyl]methyl}amino)-1-pyrrolidinyl]-3-pyridine carboxylate] | 4-4.99 | 4-4.99
5 | CCN(Cc1ccc(OCc2ccc(F)cc2)cc1)[C@@H]1CCN(c2ncccc2C(=O)OC(C)C)C1 [Example 63, 1-methylethyl 2-((3R)-3-{ethyl[(4-{[(4-fluorophenyl)methyl]oxy}phenyl)methyl]amino}-1-pyrrolidinyl)-3-pyridinecarboxylate] | 5-5.99 | 5-5.99
6 | CCc1ccc(CN(CC)[C@@H]2CCN(c3nccc(-c4ccccc4)c3C(=O)OC(C)C)C2)s1 [Example 167, 1-methylethyl 2-((3R)-3-{ethyl[(5-ethyl-2-thienyl)methyl]amino}-1-pyrrolidinyl)-4-phenyl-3-pyridinecarboxylate] | inactive | inactive
7 | CCN(Cc1ccc(CN2CCN(c3ncccc3COC(=O)CC(C)(C)C)CC2)cc1)Cc1c(F)cccc1Cl [Example 506, (2-{4-[(4-{[[(2-chloro-6-fluorophenyl)methyl](ethyl)amino]methyl}phenyl)methyl]-1-piperazinyl}-3-pyridinyl)methyl 3,3-dimethylbutanoate] | 5-5.99 | 4-4.99
8 | CC(C)OC(=O)c1cccnc1N1CCN(Cc2cccc(OCc3c(F)cccc3Cl)c2)CC1 [Example 87, 1-methylethyl 2-{4-[(3-{[(2-chloro-6-fluorophenyl)methyl]oxy}phenyl)methyl]-1-piperazinyl}-3-pyridinecarboxylate] | 5-5.99 | 4-4.99
9 | Cc1ccc(OCc2ccc(CN3CCN(c4ncccc4C(=O)OC(C)C)CC3)cc2)cc1 [Example 202] | 5-5.99 | inactive
10 | COc1cc(CN2CCN(c3ncccc3C(=O)OC(C)C)CC2)ccc1OCc1ccc(F)cc1 [Example 320, 1-methylethyl 2-(4-{[4-{[(4-fluorophenyl)methyl]oxy}-3-(methyloxy)phenyl]methyl}-1-piperazinyl)-3-pyridinecarboxylate] | 5-5.99 | 5-5.99
11 | CCc1ccc(COc2ccc(CN3CCN(c4ncccc4C(=O)OC(C)C)CC3)cc2)cc1 [Example 439] | 4-4.99 | 5-5.99
12 | CC(C)OC(=O)c1cccnc1N1CCN(Cc2cccc(OCc3ccc(C(C)C)cc3)c2)CC1 [Example 420] | 4-4.99 | inactive
13 | CCc1ccccc1CN(C)[C@H]1CCN(c2ncccc2C(=O)OC(C)C)C1 [Example 16, 1-Methylethyl 2-{(3S)-3-[[(2-ethylphenyl)methyl](methyl)amino]-1-pyrrolidinyl}-3-pyridinecarboxylate] | 5-5.99 | 5-5.99
